The values below come from patent publication US8309523 (VIB VZW, dated 2012).

Chains of the proteins cited; added tags and fusions are not shown. Residues count along the entry.
UniProt Q9UDY8, residues 2-824: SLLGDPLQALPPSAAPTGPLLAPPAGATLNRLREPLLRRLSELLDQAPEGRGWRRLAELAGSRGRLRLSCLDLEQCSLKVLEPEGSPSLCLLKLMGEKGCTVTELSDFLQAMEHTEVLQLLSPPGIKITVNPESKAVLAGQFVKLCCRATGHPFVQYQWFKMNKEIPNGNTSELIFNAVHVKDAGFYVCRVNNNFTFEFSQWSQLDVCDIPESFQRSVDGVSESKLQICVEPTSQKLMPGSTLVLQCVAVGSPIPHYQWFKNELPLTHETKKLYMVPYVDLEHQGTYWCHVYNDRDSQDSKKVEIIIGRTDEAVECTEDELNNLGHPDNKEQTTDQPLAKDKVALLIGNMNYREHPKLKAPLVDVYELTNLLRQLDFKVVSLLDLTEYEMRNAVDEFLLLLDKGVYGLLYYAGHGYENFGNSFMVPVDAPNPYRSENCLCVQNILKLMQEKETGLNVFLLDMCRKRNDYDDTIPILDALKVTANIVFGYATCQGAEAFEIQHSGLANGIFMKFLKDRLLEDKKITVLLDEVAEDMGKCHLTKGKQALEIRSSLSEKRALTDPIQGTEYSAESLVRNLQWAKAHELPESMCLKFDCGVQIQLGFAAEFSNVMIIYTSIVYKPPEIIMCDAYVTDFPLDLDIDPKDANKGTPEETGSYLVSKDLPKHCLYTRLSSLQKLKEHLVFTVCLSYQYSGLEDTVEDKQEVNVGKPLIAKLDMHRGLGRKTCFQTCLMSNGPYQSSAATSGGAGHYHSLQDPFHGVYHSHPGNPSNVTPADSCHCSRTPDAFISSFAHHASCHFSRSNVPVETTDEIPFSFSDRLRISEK

The target in this test is MALT1 (endogenous, Jurkat cells) (human) (UniProt Q9UDY8). Nature of the test: co-immunoprecipitation with anti-MALT1 from Jurkat cells, immunoblot. On the technique in general: In western blotting, separated proteins are transferred to a membrane and probed.

These are yes or no findings as the source states them, for the method shown. Binding seen in cells or lysates may run through a third protein. Some results given as binding are weak or reduced against the parent protein; the word gives no strength.

B1: BCL10 (other, UniProt O95999 1-233, looked up)
chain: MEPTAPSLTEEDLTEVKKDALENLRVYLCEKIIAERHFDHLRAKKILSREDTEEISCRTSSRKRAGKLLDYLQENPKGLDTLVESIRREKTQNFLIQKITDEVLKLRNIKLEHLKGLKCSSCEPFPDGATNNLSRSNSDESNFSEKLRASTVMYHPEGESSTTPFFSTNSSLNLPVLEVGRTENTIFSSTTLPRPGDPGAPPLPPDLQLEEEGTCANSSEMFLPLRSRTVSRQ
notes: Co-precipitated from lysates of human cell lines
Turning to B1, the binding entry was “binds”.
